One experiment concerns the target REV7^E35A (human) (UniProt Q9UI95). Nature of the experiment: SEC-MALS; co-expressed and co-purified REV7-SHLD3(1-82) samples; 100 μl at 5 mg/ml, WTC-015S5 column, 20 mM Tris-HCl pH 8.0, 150 mM NaCl, 1% glycerol, 1 mM TCEP, 0.01% NaN3; both purified.
For the next experiment, the target named is REV7^K44A (human) (UniProt Q9UI95). The description is as above.
In experiment [1] the target is T1, MBP-SHLD2(1–60) (human) (UniProt Q86V20).
T1 sequence: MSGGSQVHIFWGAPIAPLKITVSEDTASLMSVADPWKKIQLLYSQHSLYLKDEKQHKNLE
Nature of the experiment: pull-down; 30 μg MBP-SHLD2(1-60) on dextrin beads, 20 μg REV7-SHLD3(1-82) with or without 20 μg REV7 added for 30 min; washed with 20 mM Tris pH 8.0, 500 mM NaCl, 1% glycerol, 0.5 mM TCEP, 0.5% NP-40; SDS-PAGE, Coomassie; both purified.

Protein sequences, listed by entry. Tags and fused reporters are not part of them. Lines headed by an entry give the natural chain unless they say otherwise; changes in a name come on top.
UniProt Q9UI95: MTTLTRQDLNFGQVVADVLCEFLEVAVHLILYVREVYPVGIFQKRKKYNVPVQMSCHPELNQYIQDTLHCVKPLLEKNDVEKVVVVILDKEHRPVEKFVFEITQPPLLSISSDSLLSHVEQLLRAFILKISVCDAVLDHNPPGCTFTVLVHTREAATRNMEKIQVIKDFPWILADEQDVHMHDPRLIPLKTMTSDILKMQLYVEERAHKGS

The next experiment concerns the target REV7^K129A (human) (UniProt Q9UI95). Nature of the experiment: SEC-MALS; co-expressed and co-purified REV7-SHLD3(1-82) samples; 100 μl at 5 mg/ml, WTC-015S5 column, 20 mM Tris-HCl pH 8.0, 150 mM NaCl, 1% glycerol, 1 mM TCEP, 0.01% NaN3; both purified. In general terms: In gel filtration, larger molecules generally elute earlier.
In a further experiment the target is REV7^K190A (human) (UniProt Q9UI95). Described as above.
For the next experiment, the target named is REV7^R124A (human) (UniProt Q9UI95). The experiment is described as above.
In experiment [2] the target is T1, MBP-SHLD2(1–60) (human). Nature of the experiment: SEC; Superdex 200 Increase 10/300 GL, 20 mM Tris/HCl pH 8.0, 150 mM NaCl, 1% glycerol, 1 mM TCEP; proteins mixed and incubated 10 min on ice; 0.5 ml fractions on SDS-PAGE, Coomassie; both purified.

Results are given in words; binding and its absence hold for the method and conditions named. Some entries that bind do so weakly or less than the wild type. For some of these results: Sequences can lack the tags named with a protein.

With REV7^E35A (from UniProt Q9UI95 1-211), the binding result with REV7^E35A (human) is given as “no binding”.
For the substance REV7^K44A (from UniProt Q9UI95 1-211), the binding entry in the experiment with REV7^K44A (human) is “no binding”.
As to “REV7^K44A-SHLD3(1–82) (from UniProt Q9UI95 1-211; Q6ZNX1 1-82) (complex)”, in the experiment with MBP-SHLD2(1–60) (human) [1], the binding result is listed as “binds weakly”.
As to REV7^K129A (from UniProt Q9UI95 1-211), the binding entry with REV7^K129A (human) is recorded as “no binding”.
For the substance “REV7^K129A-SHLD3(1–82) (from UniProt Q9UI95 1-211; Q6ZNX1 1-82) (complex)”, in the experiment with MBP-SHLD2(1–60) (human) [1], the binding result was “binds weakly”.
On to REV7^K190A (from UniProt Q9UI95 1-211), for which, in the experiment with REV7^K190A (human), the binding entry was “no binding”.
As for “REV7^K190A-SHLD3(1–82) (from UniProt Q9UI95 1-211; Q6ZNX1 1-82) (complex)”, the binding entry in the experiment with MBP-SHLD2(1–60) (human) [1] is listed as “binds weakly”.
As to REV7^R124A (from UniProt Q9UI95 1-211), the binding result in the experiment with REV7^R124A (human) is reported as “no binding”.
Regarding “REV7^R124A-SHLD3(1–82) (from UniProt Q9UI95 1-211; Q6ZNX1 1-82) (complex)”, the binding result with MBP-SHLD2(1–60) (human) [2] and with MBP-SHLD2(1–60) (human) [1] was “no binding” throughout.

Values taken from publication PMC7181697.
